By UniProt entry, the sequences of proteins in these tests, tags left out.
UniProt P04637, whole entry, looked up: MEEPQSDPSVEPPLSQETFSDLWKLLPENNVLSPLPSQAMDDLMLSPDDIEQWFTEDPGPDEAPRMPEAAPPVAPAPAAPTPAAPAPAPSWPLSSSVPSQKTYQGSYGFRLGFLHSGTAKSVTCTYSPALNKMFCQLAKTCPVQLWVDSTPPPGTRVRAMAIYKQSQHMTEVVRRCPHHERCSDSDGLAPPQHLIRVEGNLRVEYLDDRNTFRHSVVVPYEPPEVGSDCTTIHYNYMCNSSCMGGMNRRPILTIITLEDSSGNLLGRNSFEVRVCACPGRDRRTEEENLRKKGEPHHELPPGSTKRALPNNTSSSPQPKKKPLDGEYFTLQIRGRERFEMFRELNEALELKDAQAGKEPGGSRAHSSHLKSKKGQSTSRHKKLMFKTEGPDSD

The inconclusive results got no clear call from the source; some entries with a clear call stand among them for comparison. Potencies of inconclusive entries are doubtful fits and often do not repeat. Calls of active or inactive are those of the source. Rule for the calls: active = hit-call score of the fitted dose curve at least 0.9, where 1 is the maximum; inconclusive = response in the unintended direction; inactive = score below 0.9.
Each compound was assayed against Cellular tumor antigen p53 (Homo sapiens) (UniProt P04637) (assay: TOX21_p53_BLA_p4_ratio: Tox21 HCT-116 p53 Agonism Beta-lactamase Assay, Ratio, Phase 4 (AID 2283601)).
In short: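 Signal is the blue/green (460nm/530nm) ratio of cleaved versus uncleaved CCF4-AM substrate, read after 2 h substrate loading. Cells were HCT116 carrying the p53-responsive beta-lactamase reporter, dosed 16 h at 37C, 5% CO2; CellTiter-Glo measured in parallel.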
With `NS(=O)(=O)c1cc(C2(O)NC(=O)c3ccccc32)ccc1Cl` (centres undefined) the outcome was “inactive”. With `CC(C)(C)CC(C)(C)c1cc(Cc2cc(C(C)(C)CC(C)(C)C)cc(-n3nc4ccccc4n3)c2O)c(O)c(-n2nc3ccccc3n2)c1` the AC50 was inconclusive: 42.2 µM. For `CN(CCOc1ccc(NS(C)(=O)=O)cc1)CCc1ccc(NS(C)(=O)=O)cc1`, the AC50 was inconclusive: 23 µM. For `Cc1cc(C(=O)O)ccc1[N+](=O)[O-]`, the AC50 was inconclusive: 46.2 µM. For `CN1C(C(=O)Nc2ccccn2)=C(O)c2ccccc2S1(=O)=O`, the outcome was “inactive”. `C[C@]12CCC(=O)C=C1C=C[C@@H]1[C@@H]2CC[C@@]2(C)[C@H]1CC[C@@]21CCC(=O)O1` was tested, and the AC50 was inconclusive: 23 µM. With `CC(C)C(=O)OC(=O)C(C)C` the AC50 was inconclusive: 46.1 µM. `CCCCCCCCCCCCC(=O)O` was tested, and the AC50 was inconclusive: 46.2 µM. For `Nc1nc(/C(=C/CC(=O)O)C(=O)N[C@@H]2C(=O)N3C(C(=O)O)=CCS[C@H]23)cs1`, the AC50 was inconclusive: 23 µM.
